Experimental data published in publication PMC4309668.
No constants are given. Whether binding was seen depends on the method and setting. In cells and extracts the contact can be indirect. Some binding calls cover weakened binding; strength is not graded here.

The chains behind the UniProt entries cited, without tags or fusion partners. Residues count along the entry.
UniProt Q60751, residues 742-1373: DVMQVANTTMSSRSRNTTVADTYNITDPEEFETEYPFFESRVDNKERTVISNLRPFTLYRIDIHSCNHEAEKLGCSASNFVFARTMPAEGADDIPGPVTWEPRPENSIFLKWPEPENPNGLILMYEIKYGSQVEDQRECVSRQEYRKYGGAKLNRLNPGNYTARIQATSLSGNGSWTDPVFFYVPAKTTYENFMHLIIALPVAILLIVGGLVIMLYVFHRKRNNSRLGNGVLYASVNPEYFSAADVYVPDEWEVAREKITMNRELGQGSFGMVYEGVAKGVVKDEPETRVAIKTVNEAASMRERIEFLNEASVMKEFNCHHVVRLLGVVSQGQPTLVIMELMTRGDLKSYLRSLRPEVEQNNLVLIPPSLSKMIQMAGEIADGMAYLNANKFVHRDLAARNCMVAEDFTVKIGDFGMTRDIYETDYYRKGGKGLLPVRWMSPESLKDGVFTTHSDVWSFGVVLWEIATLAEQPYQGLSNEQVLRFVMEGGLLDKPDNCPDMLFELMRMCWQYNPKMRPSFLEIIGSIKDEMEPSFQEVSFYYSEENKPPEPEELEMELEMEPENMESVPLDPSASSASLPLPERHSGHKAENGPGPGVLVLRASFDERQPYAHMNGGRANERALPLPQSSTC

Target: IGF-1 receptor β subunit (mouse (endogenous in murine dermal fibroblasts)) (UniProt Q60751)
Test: co-IP; lysates of MDFs treated with 500 μM rotenone for 3 h (and untreated control); immunoprecipitated with anti-IGF-1Rβ antibodies, immunoblotted with anti-IGF-1Rβ and anti-PTP1B antibodies

binding: binds
B1: Protein tyrosine phosphatase 1B (enzyme, UniProt P35821 1-432)
chain: MEMEKEFEEIDKAGNWAAIYQDIRHEASDFPCKVAKLPKNKNRNRYRDVSPFDHSRIKLHQEDNDYINASLIKMEEAQRSYILTQGPLPNTCGHFWEMVWEQKSRGVVMLNRIMEKGSLKCAQYWPQQEEKEMVFDDTGLKLTLISEDVKSYYTVRQLELENLTTKETREILHFHYTTWPDFGVPESPASFLNFLFKVRESGSLSLEHGPIVVHCSAGIGRSGTFCLADTCLLLMDKRKDPSSVDIKKVLLEMRRFRMGLIQTADQLRFSYLAVIEGAKFIMGDSSVQDQWKELSREDLDLPPEHVPPPPRPPKRTLEPHNGKCKELFSSHQWVSEETCGDEDSLAREEGRAQSSAMHSVSSMSPDTEVRRRMVGGGLQSAQASVPTEEELSSTEEEHKAHWPSHWKPFLVNVCMATLLATGAYLCYRVCFH
